For 3 substances, binding results are on record in PMC8531281.

The chains behind the UniProt entries cited, without tags or fusion partners. Where a name states a change or a piece, a line headed by the entry shows the natural chain unless it says otherwise.
UniProt Q99683: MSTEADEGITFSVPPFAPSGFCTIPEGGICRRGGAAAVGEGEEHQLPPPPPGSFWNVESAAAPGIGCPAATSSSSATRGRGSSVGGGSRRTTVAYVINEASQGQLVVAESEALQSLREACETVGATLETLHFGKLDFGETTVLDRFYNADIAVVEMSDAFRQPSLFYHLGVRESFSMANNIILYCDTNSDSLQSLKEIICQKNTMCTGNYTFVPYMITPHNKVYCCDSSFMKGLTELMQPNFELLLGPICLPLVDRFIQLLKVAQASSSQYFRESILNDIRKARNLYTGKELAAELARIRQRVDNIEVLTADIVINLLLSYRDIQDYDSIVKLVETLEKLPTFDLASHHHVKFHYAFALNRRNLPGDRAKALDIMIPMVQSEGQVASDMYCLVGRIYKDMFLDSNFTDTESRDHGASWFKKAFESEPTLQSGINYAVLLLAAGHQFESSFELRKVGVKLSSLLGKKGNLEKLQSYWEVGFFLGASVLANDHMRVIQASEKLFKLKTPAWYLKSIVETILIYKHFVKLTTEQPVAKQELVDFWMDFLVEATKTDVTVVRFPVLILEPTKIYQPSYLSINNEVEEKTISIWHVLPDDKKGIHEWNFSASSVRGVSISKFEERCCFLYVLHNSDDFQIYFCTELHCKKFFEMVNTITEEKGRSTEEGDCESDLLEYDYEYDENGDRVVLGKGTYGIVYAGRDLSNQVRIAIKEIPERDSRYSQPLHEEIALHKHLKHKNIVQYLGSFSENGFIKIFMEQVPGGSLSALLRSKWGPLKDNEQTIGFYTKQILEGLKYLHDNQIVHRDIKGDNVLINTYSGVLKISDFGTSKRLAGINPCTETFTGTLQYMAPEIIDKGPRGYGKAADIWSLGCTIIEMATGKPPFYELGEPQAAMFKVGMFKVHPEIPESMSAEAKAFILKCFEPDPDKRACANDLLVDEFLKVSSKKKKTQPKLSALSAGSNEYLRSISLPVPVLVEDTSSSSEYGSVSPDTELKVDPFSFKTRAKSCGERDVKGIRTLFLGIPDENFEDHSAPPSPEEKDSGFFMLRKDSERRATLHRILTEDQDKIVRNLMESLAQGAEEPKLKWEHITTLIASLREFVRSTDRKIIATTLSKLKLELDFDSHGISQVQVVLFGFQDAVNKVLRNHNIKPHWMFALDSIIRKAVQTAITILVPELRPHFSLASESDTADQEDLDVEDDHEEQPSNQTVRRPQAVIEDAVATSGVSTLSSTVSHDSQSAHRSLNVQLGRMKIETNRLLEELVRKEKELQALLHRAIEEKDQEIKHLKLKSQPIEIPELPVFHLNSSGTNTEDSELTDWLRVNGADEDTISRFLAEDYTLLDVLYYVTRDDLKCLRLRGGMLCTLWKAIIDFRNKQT
UniProt Q8N4A0: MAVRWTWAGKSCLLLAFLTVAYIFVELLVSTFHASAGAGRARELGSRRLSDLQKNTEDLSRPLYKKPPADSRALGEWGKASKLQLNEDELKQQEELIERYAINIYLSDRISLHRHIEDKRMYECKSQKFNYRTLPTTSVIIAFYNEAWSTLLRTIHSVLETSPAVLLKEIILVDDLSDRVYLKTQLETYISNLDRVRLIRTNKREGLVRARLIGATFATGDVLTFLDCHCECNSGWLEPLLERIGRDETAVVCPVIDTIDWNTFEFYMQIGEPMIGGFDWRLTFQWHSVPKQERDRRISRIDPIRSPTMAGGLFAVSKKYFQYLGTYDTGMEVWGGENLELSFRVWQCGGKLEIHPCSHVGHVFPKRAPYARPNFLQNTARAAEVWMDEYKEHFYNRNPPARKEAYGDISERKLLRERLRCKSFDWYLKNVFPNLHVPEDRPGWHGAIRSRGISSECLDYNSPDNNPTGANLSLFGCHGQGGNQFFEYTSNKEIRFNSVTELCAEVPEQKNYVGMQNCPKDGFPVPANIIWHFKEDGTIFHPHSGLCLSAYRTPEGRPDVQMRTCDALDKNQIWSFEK

These are yes or no findings as the source states them, for the method shown. In cells and extracts the contact can be indirect. Some entries that bind do so weakly or less than the wild type.

One experiment addresses ASK1 (1–678) (UniProt Q99683). The experiment can be described thus: co-IP; dimerization of ASK1 (1-678) in 293T cells, effect of GALNT4 (Fig. 6J).
For another experiment, the target named is GST-HA-ASK1 (UniProt Q99683). The experiment can be described thus: pull-down; GST-HA fusion purified on GST beads from eukaryotic cells, mixed with the FLAG-tagged partner overnight at 4 °C; lysis buffer 50 mM Na2HPO4 pH 8.0, 300 mM NaCl, 1% TritonX-100; western blot; only the target purified. In general terms: A western blot detects proteins with antibodies after separation by electrophoresis.

The next experiment concerns the target HA-ASK1 (UniProt Q99683). As to the kind of experiment: co-IP; 293T cells co-transfected with Flag-GALNT4 and HA-ASK1, 24 h; IP lysis buffer (20 mM Tris-HCl pH 7.4, 150 mM NaCl, 1 mM EDTA, 1% NP-40); protein G agarose with anti-FLAG or anti-HA antibody, 4 °C overnight; washes with 300 mM and 150 mM NaCl; western blot.

Turning to “GALNT4 (co-expressed in the ASK1 (1–678) dimerization experiment) (from UniProt Q8N4A0 1-578)”, the binding entry with ASK1 (1–678) is listed as “binds”.

In the case of “Flag-GALNT4 (polypeptide N-acetylgalactosaminyltransferase 4) (from UniProt Q8N4A0 1-578)”, the binding result with GST-HA-ASK1 and with HA-ASK1 was “binds” each time.

As for “ASK1 (1–678) (from UniProt Q99683 1-678) (domain or fragment)”, in the experiment with ASK1 (1–678), the binding entry is reported as “binds”.
